Experiment [1] addresses T1, MYC-TAB2 (TAK1-binding protein 2) (UniProt Q99K90).
T1 sequence: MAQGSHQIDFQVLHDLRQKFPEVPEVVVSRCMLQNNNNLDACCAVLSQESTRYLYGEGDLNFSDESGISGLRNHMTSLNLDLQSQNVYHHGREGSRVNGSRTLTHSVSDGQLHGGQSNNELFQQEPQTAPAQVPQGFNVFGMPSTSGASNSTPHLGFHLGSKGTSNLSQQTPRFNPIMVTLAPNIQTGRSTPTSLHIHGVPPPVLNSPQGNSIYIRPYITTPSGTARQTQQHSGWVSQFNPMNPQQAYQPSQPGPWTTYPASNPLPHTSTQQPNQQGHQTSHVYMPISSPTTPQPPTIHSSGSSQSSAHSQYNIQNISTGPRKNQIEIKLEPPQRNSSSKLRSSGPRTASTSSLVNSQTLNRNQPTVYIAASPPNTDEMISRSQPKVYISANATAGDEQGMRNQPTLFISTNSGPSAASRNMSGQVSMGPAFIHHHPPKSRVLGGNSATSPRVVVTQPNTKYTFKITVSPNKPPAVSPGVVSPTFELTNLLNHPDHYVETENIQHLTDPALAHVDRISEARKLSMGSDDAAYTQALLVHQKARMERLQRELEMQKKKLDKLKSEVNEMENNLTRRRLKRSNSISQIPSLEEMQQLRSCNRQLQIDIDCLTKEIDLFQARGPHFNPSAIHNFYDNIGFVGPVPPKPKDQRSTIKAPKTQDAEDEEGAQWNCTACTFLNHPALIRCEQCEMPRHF
In words: co-IP; BV2 cells transfected with Flag-TAK1 and/or MYC-TAB2; lysates incubated with anti-MYC antibody overnight at 4 °C; Co-IP kit (Absin Bioscience).

Experiment [2] concerns the target T2, TGFβ-activated kinase 1 (TAK1)-binding proteins 2 (TAB2), endogenous (mouse (endogenous in microglial cells and C57BL/6J brain)) (UniProt Q99K90).
T2 sequence: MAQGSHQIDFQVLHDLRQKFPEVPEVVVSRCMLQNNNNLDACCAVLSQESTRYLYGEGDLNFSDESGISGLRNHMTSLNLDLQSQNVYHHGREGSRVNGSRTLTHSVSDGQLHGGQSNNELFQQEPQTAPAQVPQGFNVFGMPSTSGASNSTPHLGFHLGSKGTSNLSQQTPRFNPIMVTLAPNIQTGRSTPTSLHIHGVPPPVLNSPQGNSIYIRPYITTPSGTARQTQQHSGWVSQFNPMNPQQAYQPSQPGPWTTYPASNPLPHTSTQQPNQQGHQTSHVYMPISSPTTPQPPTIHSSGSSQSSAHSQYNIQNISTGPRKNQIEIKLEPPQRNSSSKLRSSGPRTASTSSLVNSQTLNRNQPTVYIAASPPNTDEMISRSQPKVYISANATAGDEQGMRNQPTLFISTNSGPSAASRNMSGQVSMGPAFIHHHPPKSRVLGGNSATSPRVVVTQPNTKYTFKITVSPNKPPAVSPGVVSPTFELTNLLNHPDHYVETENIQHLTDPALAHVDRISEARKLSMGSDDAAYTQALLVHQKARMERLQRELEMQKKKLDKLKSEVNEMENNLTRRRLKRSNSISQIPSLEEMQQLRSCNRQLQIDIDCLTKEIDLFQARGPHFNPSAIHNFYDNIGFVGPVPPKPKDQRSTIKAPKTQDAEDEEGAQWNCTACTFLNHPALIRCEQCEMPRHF
Put plainly: proximity ligation; Duolink PLA on mouse brain tissue sections with anti-TAB2 and anti-TAK1; mice treated with LPS, miR-NC^KD-EVs or miR-672-5p^KD-EVs.

In experiment [3] the target is T2, TGFβ-activated kinase 1 (TAK1)-binding proteins 2 (TAB2), endogenous (mouse (endogenous in microglial cells and C57BL/6J brain)). In words: co-IP; without tags: cell lysates incubated with anti-TAB2 antibody overnight at 4 °C; microglia treated with LPS, miR-NC^KD-EVs or miR-672-5p^KD-EVs.
For experiment [4] the target is unchanged. In words: proximity ligation; Duolink PLA on fixed, permeabilised microglial cells with anti-TAB2 and anti-TAK1; cells treated with LPS, miR-NC^KD-EVs or miR-672-5p^KD-EVs.

These are yes or no findings as the source states them, for the method shown. Binding seen in cells or lysates may run through a third protein. Some binding calls cover weakened binding; strength is not graded here. For some of these results: Sequences can lack the tags named with a protein.

B1: Flag-TAK1 (TGFβ-activated kinase 1) (enzyme, UniProt Q62073 1-579)
chain: MSTASAASSSSSSSASEMIEAPSQVLNFEEIDYKEIEVEEVVGRGAFGVVCKAKWRAKDVAIKQIESESERKAFIVELRQLSRVNHPNIVKLYGACLNPVCLVMEYAEGGSLYNVLHGAEPLPYYTAAHAMSWCLQCSQGVAYLHSMQPKALIHRDLKPPNLLLVAGGTVLKICDFGTACDIQTHMTNNKGSAAWMAPEVFEGSNYSEKCDVFSWGIILWEVITRRKPFDEIGGPAFRIMWAVHNGTRPPLIKNLPKPIESLMTRCWSKDPSQRPSMEEIVKIMTHLMRYFPGADEPLQYPCQYSDEGQSNSATSTGSFMDIASTNTSNKSDTNMEQVPATNDTIKRLESKLLKNQAKQQSESGRLSLGASRGSSVESLPPTSEGKRMSADMSEIEARIVATAGNGQPRRRSIQDLTVTGTEPGQVSSRSSSPSVRMITTSGPTSEKPARSHPWTPDDSTDTNGSDNSIPMAYLTLDHQLQPLAPCPNSKESMAVFEQHCKMAQEYMKVQTEIALLLQRKQELVAELDQDEKDQQNTSRLVQEHKKLLDENKSLSTYYQQCKKQLEVIRSQQQKRQGTS
On to B1, for which the binding entry in experiment [1] is reported as “binds”.

B2: TGFβ-activated kinase 1 (TAK1), endogenous (enzyme, UniProt Q62073 1-579)
chain: MSTASAASSSSSSSASEMIEAPSQVLNFEEIDYKEIEVEEVVGRGAFGVVCKAKWRAKDVAIKQIESESERKAFIVELRQLSRVNHPNIVKLYGACLNPVCLVMEYAEGGSLYNVLHGAEPLPYYTAAHAMSWCLQCSQGVAYLHSMQPKALIHRDLKPPNLLLVAGGTVLKICDFGTACDIQTHMTNNKGSAAWMAPEVFEGSNYSEKCDVFSWGIILWEVITRRKPFDEIGGPAFRIMWAVHNGTRPPLIKNLPKPIESLMTRCWSKDPSQRPSMEEIVKIMTHLMRYFPGADEPLQYPCQYSDEGQSNSATSTGSFMDIASTNTSNKSDTNMEQVPATNDTIKRLESKLLKNQAKQQSESGRLSLGASRGSSVESLPPTSEGKRMSADMSEIEARIVATAGNGQPRRRSIQDLTVTGTEPGQVSSRSSSPSVRMITTSGPTSEKPARSHPWTPDDSTDTNGSDNSIPMAYLTLDHQLQPLAPCPNSKESMAVFEQHCKMAQEYMKVQTEIALLLQRKQELVAELDQDEKDQQNTSRLVQEHKKLLDENKSLSTYYQQCKKQLEVIRSQQQKRQGTS
B2: the binding result in experiment [2], in experiment [3] and in experiment [4] was “binds” each time.

Values taken from article PMC10541416.
